Holding throughout (test): affinity purification with mass spectrometry
In assay [1] the target is CSK (human (endogenous in Jurkat, FOCUS and other cancer cell lines)) (UniProt P41240).
Assay [2] deals with CDK10 (human (endogenous in cancer cell lines)) (UniProt Q15131).
For assay [3], the target named is CDK1 (human (endogenous in HeLa)) (UniProt P06493).
Assay [4] concerns the target CDK7 (human (endogenous in HeLa)) (UniProt P50613).
Assay [5] concerns the target HCK (human (endogenous in FOCUS)) (UniProt P08631).
For assay [6], the target named is adapter-associated kinase 1 (AAK1) (human (endogenous in FOCUS)) (UniProt Q2M2I8).

Amino acid sequences for entries named in this document (tags omitted).
UniProt P41240: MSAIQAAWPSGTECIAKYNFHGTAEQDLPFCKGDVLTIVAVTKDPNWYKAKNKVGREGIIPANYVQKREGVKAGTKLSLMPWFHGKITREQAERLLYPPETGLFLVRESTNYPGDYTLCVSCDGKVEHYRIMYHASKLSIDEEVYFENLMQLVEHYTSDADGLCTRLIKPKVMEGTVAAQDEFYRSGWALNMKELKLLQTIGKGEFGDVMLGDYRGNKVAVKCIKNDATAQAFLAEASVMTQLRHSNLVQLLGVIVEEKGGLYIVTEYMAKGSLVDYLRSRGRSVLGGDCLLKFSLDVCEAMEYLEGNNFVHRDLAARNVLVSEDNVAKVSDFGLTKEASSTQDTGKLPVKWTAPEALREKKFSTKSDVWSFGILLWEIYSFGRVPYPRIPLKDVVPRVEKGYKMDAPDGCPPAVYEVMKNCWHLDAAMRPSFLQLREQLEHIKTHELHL
UniProt Q08999: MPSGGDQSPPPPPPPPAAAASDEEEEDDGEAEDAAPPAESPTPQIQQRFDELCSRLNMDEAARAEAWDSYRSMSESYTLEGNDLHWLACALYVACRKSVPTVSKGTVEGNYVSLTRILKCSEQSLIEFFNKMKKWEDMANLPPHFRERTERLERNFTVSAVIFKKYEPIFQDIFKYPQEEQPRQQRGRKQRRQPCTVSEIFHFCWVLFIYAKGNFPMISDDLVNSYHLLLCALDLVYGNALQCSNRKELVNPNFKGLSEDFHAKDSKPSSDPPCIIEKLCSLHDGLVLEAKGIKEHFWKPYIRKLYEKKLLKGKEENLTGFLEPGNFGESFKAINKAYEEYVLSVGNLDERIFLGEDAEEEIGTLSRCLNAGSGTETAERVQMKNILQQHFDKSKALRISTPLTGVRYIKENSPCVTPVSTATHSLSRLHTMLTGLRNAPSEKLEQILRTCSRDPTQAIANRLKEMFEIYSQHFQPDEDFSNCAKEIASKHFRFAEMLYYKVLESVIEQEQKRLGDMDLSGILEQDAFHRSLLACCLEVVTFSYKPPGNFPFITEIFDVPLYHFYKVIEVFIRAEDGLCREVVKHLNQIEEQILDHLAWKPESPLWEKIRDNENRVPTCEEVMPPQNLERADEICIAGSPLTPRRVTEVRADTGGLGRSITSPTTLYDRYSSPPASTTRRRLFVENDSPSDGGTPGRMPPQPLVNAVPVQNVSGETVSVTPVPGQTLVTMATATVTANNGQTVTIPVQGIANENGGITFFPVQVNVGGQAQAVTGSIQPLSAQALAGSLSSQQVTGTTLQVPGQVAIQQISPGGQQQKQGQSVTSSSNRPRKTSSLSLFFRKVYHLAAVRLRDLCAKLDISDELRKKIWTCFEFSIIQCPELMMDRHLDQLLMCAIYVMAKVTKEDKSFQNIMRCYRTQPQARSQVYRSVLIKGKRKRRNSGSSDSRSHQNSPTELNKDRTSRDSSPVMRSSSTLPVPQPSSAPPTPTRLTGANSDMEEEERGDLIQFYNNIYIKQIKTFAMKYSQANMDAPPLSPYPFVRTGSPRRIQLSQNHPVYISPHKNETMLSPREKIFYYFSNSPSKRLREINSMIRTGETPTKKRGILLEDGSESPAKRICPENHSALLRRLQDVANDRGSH
UniProt O95067: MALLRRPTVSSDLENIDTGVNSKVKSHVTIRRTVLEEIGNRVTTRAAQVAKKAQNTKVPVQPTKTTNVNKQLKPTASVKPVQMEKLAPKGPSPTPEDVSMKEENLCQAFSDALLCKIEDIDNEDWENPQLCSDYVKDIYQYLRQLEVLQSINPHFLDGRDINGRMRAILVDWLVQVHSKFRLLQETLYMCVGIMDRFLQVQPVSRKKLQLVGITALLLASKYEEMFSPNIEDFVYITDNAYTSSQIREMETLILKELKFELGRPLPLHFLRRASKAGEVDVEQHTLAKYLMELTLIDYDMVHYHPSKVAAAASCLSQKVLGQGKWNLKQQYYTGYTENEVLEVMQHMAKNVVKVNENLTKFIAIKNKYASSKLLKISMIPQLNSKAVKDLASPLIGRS
UniProt P32780: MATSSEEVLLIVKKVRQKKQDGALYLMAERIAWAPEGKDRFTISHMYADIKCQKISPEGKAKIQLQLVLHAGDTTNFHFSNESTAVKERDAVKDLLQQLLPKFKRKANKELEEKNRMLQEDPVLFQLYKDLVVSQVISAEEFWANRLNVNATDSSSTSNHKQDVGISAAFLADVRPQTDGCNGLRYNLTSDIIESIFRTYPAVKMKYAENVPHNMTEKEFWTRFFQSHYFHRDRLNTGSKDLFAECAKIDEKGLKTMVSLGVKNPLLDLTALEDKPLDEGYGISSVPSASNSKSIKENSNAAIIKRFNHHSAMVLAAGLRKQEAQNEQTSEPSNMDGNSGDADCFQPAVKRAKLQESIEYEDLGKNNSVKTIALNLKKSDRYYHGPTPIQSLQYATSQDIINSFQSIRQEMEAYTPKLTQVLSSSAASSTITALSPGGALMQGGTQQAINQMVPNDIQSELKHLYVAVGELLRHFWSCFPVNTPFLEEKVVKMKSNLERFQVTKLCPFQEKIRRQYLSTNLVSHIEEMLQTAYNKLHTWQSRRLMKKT
UniProt Q9HBL0: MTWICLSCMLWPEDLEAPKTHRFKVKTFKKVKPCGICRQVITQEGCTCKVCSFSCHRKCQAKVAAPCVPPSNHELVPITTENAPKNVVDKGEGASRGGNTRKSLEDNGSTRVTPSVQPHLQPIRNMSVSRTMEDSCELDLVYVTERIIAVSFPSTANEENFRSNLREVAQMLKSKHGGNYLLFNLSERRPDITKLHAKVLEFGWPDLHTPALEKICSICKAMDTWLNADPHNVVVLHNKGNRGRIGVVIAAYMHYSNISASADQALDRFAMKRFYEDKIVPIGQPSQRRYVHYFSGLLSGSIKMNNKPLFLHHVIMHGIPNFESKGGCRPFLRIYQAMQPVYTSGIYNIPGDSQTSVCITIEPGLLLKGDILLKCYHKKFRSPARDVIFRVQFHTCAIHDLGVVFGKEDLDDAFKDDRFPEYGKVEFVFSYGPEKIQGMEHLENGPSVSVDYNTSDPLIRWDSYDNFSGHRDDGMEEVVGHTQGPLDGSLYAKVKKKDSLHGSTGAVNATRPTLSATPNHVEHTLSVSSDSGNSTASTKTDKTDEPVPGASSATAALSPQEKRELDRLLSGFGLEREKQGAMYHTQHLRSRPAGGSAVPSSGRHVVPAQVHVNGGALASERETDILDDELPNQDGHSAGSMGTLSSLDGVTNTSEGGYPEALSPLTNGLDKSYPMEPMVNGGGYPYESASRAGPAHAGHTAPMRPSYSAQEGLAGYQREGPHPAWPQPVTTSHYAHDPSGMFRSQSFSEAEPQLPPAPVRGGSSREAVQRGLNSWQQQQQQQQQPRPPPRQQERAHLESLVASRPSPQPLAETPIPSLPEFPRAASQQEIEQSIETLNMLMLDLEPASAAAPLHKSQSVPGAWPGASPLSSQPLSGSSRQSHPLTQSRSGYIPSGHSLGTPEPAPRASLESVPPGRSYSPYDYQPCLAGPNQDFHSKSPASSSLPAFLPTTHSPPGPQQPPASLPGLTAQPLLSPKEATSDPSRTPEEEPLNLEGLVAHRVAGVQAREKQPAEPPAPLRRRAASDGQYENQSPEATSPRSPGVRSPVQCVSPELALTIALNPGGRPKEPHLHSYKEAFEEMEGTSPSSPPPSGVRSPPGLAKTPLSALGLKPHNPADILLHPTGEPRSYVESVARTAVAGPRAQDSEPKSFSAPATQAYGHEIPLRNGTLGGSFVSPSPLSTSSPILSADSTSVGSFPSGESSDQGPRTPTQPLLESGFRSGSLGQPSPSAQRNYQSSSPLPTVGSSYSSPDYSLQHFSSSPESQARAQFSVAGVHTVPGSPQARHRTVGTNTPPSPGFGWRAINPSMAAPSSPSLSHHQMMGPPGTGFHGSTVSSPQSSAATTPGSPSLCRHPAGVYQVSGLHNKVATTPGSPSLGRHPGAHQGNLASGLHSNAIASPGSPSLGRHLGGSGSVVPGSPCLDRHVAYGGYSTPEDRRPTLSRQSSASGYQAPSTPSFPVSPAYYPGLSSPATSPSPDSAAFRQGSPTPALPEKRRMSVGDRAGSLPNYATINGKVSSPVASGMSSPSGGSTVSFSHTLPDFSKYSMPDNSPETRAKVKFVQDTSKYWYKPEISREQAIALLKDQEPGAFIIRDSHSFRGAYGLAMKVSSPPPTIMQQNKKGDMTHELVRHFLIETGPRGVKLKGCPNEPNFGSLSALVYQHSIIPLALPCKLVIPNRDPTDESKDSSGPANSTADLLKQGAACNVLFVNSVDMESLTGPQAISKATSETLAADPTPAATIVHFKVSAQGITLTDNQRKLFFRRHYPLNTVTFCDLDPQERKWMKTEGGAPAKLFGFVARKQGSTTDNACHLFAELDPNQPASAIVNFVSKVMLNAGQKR
UniProt Q68CZ2: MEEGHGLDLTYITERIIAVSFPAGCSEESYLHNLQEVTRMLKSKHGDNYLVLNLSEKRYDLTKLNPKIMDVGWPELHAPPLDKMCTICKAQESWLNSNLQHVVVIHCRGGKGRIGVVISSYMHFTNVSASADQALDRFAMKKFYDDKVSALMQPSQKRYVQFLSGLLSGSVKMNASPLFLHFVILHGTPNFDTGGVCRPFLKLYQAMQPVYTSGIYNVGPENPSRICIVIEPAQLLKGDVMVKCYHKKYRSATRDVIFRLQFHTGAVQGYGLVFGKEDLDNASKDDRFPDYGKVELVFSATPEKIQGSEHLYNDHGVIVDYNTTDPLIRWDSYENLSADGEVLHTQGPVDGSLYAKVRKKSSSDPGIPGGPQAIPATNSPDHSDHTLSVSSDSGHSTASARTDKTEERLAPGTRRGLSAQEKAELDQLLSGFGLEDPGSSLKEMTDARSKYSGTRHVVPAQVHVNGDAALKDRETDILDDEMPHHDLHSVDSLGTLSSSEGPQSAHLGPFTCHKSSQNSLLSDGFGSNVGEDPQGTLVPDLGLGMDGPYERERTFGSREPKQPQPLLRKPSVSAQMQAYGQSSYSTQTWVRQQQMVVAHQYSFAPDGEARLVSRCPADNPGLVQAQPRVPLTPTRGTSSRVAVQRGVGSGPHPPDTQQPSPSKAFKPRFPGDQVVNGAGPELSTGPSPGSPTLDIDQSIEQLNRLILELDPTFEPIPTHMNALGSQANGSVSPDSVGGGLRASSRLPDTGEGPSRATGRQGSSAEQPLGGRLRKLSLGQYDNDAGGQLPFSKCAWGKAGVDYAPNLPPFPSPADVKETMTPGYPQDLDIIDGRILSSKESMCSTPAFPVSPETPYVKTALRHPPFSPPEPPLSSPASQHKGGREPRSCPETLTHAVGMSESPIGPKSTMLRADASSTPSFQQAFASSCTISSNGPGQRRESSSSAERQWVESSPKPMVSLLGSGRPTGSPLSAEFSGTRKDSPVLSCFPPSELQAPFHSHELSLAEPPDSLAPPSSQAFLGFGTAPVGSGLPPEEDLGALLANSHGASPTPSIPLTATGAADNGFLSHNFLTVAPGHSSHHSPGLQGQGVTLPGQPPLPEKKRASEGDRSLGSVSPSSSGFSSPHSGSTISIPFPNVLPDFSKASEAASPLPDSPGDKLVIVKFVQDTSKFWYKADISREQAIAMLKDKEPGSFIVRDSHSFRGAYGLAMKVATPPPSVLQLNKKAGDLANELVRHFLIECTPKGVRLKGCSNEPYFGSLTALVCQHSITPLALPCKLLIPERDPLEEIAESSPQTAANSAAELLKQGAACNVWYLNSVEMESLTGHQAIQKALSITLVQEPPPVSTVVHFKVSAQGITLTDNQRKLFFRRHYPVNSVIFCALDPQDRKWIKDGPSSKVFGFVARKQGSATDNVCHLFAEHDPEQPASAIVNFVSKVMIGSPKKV
UniProt Q15311: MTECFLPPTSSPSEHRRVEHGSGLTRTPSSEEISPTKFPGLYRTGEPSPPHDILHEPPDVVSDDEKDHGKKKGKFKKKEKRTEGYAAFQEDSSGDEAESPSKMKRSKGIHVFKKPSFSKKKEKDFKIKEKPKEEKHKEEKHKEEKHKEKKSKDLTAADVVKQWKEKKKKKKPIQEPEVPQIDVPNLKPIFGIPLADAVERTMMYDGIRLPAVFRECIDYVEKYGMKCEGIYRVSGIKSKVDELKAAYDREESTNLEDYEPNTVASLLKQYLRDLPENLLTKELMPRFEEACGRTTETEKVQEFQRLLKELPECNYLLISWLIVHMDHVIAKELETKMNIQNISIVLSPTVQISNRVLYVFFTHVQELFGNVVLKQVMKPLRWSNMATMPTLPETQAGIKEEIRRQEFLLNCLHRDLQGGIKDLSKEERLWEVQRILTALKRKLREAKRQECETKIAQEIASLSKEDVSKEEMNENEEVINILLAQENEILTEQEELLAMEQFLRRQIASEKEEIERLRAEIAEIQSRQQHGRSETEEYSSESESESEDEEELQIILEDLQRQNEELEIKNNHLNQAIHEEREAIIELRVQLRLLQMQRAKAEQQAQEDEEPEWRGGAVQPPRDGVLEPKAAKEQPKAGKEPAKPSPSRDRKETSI

These are yes or no findings as the source states them, for the method shown. Binding seen in cells or lysates may run through a third protein. Here binding means that the protein was enriched with, or labelled near, the bait; the list need not be complete.

Consider PAG1 (from UniProt Q9NWQ8 1-432), for which the binding entry in assay [1] is recorded as “binds”.
Consider “retinoblastoma-like protein 2 (RBL2) (from UniProt Q08999 1-1139)”, for which the binding entry in assay [2] is “binds”.
Regarding cyclin A1 (from UniProt P78396 1-465), the binding entry in assay [3] is given as “binds”.
The same measure, in the same setting: under cyclin B2 (from UniProt O95067 1-398) stands “binds”.
For GTF2H1 (from UniProt P32780 1-548), in assay [4], the binding entry is on record as “binds”.
“paxillin (PXN) (from UniProt P49023 1-591)”: the binding result in assay [1] was “binds”.
For “transcription factor Dp-1 (TFDP1) (from UniProt Q14186 1-410)”, the binding entry in assay [2] is on record as “binds”.
In the case of UBASH3B (from UniProt Q8TF42 1-649), the binding entry in assay [1] is listed as “binds”.
Regarding “galectin-1 (LGALS1) (from UniProt P09382 1-135)”, in assay [5], the binding entry is given as “binds”.
Take ERCC3 (from UniProt P19447 1-782): the binding result in assay [4] is “binds”.
“tensin 1 (TNS1) (from UniProt Q9HBL0 1-1839)”: the binding result in assay [1] is “binds”.
Still for that read-out and setting: under “tensin-3 (TNS3) (from UniProt Q68CZ2 1-1445)” stands “binds”.
For the substance RALBP1 (from UniProt Q15311 1-655), the binding result in assay [6] was “binds”.

(Values after doi:10.1101/2021.09.14.460283.)
